This passage reports binding results from article PMC5704011.

Protein sequences, listed by entry. Tags and fused reporters are not part of them. Lines headed by an entry give the natural chain unless they say otherwise; changes in a name come on top. Residues count along the entry.
UniProt P35916, residues 25-775: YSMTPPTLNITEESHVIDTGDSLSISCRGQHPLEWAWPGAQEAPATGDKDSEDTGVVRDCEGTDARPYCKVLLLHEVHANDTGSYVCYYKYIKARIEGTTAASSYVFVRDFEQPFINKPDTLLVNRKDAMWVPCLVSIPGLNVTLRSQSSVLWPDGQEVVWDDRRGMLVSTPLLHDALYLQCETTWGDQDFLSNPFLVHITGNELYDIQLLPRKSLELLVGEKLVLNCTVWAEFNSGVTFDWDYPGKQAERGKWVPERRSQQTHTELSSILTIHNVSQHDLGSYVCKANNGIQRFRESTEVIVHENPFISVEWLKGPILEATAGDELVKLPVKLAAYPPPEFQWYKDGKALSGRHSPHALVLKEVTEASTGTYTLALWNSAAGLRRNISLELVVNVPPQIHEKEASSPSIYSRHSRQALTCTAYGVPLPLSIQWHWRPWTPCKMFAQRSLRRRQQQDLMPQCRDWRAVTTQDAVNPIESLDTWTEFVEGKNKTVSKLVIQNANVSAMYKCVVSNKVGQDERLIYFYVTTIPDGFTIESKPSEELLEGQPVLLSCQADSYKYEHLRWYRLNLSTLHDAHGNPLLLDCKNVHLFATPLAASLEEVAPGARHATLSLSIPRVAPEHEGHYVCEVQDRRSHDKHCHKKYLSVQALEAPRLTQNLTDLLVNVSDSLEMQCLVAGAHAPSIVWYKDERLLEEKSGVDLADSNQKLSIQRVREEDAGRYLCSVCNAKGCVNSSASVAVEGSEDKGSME
UniProt P17948, residues 27-758: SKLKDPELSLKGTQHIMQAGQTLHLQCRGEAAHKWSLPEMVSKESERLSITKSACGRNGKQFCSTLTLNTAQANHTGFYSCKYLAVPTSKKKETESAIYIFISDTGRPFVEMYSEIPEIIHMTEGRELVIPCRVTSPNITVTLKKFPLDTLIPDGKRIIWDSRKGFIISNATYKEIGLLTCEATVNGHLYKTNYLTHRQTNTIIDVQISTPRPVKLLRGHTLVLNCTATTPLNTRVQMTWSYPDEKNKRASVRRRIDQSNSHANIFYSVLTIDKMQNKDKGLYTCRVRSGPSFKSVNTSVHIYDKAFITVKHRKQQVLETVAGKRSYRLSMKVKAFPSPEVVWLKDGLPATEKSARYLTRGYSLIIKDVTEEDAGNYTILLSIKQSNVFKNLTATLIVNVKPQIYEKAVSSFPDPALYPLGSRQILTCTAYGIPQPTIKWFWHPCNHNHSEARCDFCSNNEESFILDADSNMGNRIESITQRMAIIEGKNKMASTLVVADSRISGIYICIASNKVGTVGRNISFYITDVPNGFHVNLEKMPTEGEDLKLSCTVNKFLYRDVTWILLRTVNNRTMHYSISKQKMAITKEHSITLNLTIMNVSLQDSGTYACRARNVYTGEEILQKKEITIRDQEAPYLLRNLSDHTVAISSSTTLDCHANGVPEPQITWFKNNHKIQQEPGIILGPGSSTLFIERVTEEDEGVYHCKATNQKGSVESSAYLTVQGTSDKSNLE
UniProt Q9NRA1: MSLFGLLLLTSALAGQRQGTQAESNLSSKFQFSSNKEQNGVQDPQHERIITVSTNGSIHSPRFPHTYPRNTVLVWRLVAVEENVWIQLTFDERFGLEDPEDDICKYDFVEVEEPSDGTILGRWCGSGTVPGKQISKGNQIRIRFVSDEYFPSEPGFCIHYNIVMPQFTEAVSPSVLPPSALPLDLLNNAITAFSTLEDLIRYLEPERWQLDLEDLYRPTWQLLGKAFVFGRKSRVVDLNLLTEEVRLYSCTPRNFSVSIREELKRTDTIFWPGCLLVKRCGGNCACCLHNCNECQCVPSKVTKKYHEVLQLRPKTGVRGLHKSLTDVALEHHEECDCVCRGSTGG

No constants are given. Whether binding was seen depends on the method and setting.

Experiment [1] addresses human recombinant VEGFR3 (human) (UniProt P35916). Briefly: SPR; BIAcore 3000, 25 °C, CM5 chip; receptor immobilised by amine coupling (~200-500 R.U.); ligand injected at 40, 20 and 10 nM in HBS-EP pH 7.4 (10 mM HEPES, 3 mM EDTA, 150 mM NaCl, 0.005% TWEEN-20); angiopoietin-4 reference cell subtracted; global 1:1 Langmuir fit; χ^2-to-Rmax < 1.0 taken as a true interaction; both purified.

Experiment [2] concerns the target VEGFR1 (Homo sapiens) (UniProt P17948). Described as above.

With “human recombinant PDGF-CC (from UniProt Q9NRA1) (ligand)”, the binding result in experiment [1] and in experiment [2] was “no binding (tested: 40 nM)” each time.
